Source: PubChem BioAssay AID1671190 (National Center for Advancing Translational Sciences (NCATS), 2021)
Out of some 580,000 compounds screened, about 6,100 (1.1%) were called active. The shares of active, inactive and inconclusive entries below differ from those in the screen. The call rests on the fitted dose curve; in most records, active means well fitted inhibition curve with a large enough effect; inconclusive means small, poorly fitted or top-dose-only effect, or another doubt; inactive means no such curve, though single readings can be large or run the other way. Potencies beside an inconclusive call are fits to weak or partial responses and may not hold up. Peptide text beside a SMILES is read from it.

By UniProt entry, the sequences of proteins in these tests, tags left out. Where a name states a change or a piece, a line headed by the entry shows the natural chain unless it says otherwise.
UniProt P18054: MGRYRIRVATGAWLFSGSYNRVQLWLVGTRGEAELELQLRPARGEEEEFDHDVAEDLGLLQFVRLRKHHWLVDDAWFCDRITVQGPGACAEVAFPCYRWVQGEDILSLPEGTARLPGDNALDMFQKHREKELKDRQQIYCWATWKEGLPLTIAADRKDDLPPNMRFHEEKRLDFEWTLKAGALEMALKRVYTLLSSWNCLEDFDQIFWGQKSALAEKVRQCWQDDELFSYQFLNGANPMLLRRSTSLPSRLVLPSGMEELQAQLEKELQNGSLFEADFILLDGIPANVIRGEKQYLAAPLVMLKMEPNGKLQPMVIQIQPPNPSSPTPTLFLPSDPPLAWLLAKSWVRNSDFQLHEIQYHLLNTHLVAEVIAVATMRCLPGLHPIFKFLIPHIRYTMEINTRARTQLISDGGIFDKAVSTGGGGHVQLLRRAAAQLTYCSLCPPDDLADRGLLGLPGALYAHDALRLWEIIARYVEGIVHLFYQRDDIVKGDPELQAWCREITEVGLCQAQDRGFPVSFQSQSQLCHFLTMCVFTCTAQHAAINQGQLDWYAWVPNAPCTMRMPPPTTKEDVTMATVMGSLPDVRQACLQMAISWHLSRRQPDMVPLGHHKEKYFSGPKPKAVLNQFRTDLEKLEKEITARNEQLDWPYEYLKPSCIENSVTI

What follows are molecules tested against Polyunsaturated fatty acid lipoxygenase ALOX12 (Homo sapiens) (UniProt P18054) (assay: Primary qHTS assay for inhibitors of human arachidonate 12S-lipoxygenase (ALOX12): Round 2). Details: purified 12hLO, xylenol orange hydroperoxide absorbance; activity change, negative = inhibition: at 108 µM (top of the series) unless noted.
Summary of the method: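 Purified human 12hLO at 150 nM in 25 mM Hepes, 0.01% Triton X-100, pH 7.0, preincubated 15 min at room temperature with compound. Reaction started with 40 uM arachidonic acid, 30 min at room temperature. Hydroperoxide measured by Fe-xylenol orange, 573/405 nm absorbance ratio.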
On the % scale 0 is the no-effect control and ±100 the full control effect; potency means the concentration at half of the fitted maximal effect.

SMILES | Potency | activity change, negative = inhibition
CCOc1cc(-c2ccc(OCC(=O)OC)c(OC)c2)cc(=O)c2c(C)oc(C)c12 | inconclusive: 5.62 µM [inhibitor, full curve] | 
Cc1cn2c(/C=C/C(=O)c3ccc(S(=O)(=O)N(C)C)cc3)c(C)nc2s1 | inconclusive: 50.1 µM [inhibitor, partial curve, poor fit] | 
Cc1ccc(CNC(=O)c2cc3c(=O)n(Cc4cccnc4)ccc3nc2C)cc1 | inactive | 
CCOc1cccc(C2c3c(-c4cc(C)ccc4O)n[nH]c3C(=O)N2Cc2ccco2)c1 (stereo unspecified) | inconclusive: 100 µM [inhibitor, single point] | 
COc1ccc(C(=O)COC(=O)CNC(=O)c2ccccc2)cc1F | inconclusive: 112 µM [inhibitor, single point] | 
CC1Oc2ccccc2C=C1/C=C1\Oc2cc(OCC(=O)OC(C)(C)C)ccc2C1=O (stereo unspecified) | inconclusive: 8.91 µM [inhibitor, partial curve, poor fit] | 
Cc1cccc(C)c1NC(=O)C1(C)c2cccc[n+]2CC(=O)N1Cc1cccs1 (stereo unspecified) | inconclusive: 44.7 µM [inhibitor, partial curve, poor fit] | 
CCOC(=O)C1CCN(C(=O)c2ccc3c(=O)n4nc(Nc5cc(C)ccc5C)sc4nc3c2)CC1 | inactive | 
CCOC(=O)C(C)NC(=O)c1c(C)oc2ncn(CC(C)C)c(=O)c12 (stereo unspecified) | inconclusive: 158 µM [inhibitor, partial curve, poor fit] | 
CCOC(=O)Nc1ccc(NS(=O)(=O)c2ccc(C)cc2Cl)cc1 | active: 31.6 µM | 
CCCCNc1nc2ccccc2nc1NS(=O)(=O)c1cccs1 | inconclusive: 44.7 µM [inhibitor, partial curve, poor fit] | 
COc1ccc(CNC(=O)CCSc2ccc(F)cc2)cc1OC | inactive | 
CCn1nc(C(=O)OCC(=O)Nc2c(Cl)cc(Cl)cc2Cl)c2ccccc2c1=O | inconclusive: 44.7 µM [inhibitor, partial curve, poor fit] | 
CC1CCN(C(=O)c2ccc(-c3ccccc3Cl)o2)CC1 | inactive | 
COc1ccc(OC)c(CCNC(=O)c2csc3c2CCCCC3)c1 | inactive | 
CC(=O)N[C@@H](CC(=O)O)C(=O)N[C@@H](CCC(=O)O)C(=O)O (Ac-Asp-Glu-OH) | inconclusive: 31.6 µM [inhibitor, partial curve, poor fit] | 
O=C(Nc1ccc(S(=O)(=O)N2CCCCC2)cc1)c1ccc(F)cc1 | inactive | 
Cc1cc(C(C)(C)CC(C)(C)C)ccc1OCCOCC[N+](C)(C)Cc1ccccc1 | inconclusive: 44.7 µM [inhibitor, partial curve, poor fit] | 
COc1cccc(N2CCN(C(=O)CCc3conc3-c3ccccc3)CC2)c1 | inactive | 
CC1=[N+]([O-])C(C)(C)C(c2ccc(Cl)cc2)=[N+]1[O-] | inconclusive: 12.6 µM [inhibitor, partial curve, poor fit] | 
CC(=O)NCC(=O)N1Cc2ccccc2CC2(CCCCN2CC2CCNC2)C1 (stereo unspecified) |  | inactive: -15.7% [at 6.33 µM]

SMILES | Potency | activity change, negative = inhibition
O=C(CN1C(=O)/C(=C/c2ccccc2)SC1=S)N1CCN(CCc2ccccn2)CC1 | inactive | 
Cc1cc(C(=O)NC2CCCCC2)c2cc(F)ccc2n1 | inconclusive: 2.51 µM [inhibitor, full curve, poor fit] | 
O=S(=O)(c1cc(Cl)ccc1Cl)N1CCN(Cc2ccco2)CC1 | inactive | 
CCOC(=O)N1CCN(C(=O)/C(=C/c2ccc(N(C)C)cc2)NC(=O)c2ccccc2)CC1 | inconclusive: 126 µM [inhibitor, single point] | 
CCOc1ccccc1OCCCOc1ccc(C)cc1Br | inconclusive: 28.2 µM [inhibitor, partial curve, poor fit] | 
Cc1ccc(C)c2nc(N3CCCC3)c(C#N)cc12 | inconclusive: 39.8 µM [inhibitor, partial curve, poor fit] | 
CC(C)(C)c1ccc(C(=O)NNc2ccc(F)cc2F)cc1 | inconclusive: 50.1 µM [inhibitor, partial curve, poor fit] | 
COc1ccc(CNC(=O)Cn2ncn3c(cc4ccccc43)c2=O)cc1 | inactive | 
O=C(COc1ccc(Cl)cc1Cl)NNC(=S)NC(=O)c1ccco1 | inconclusive: 28.2 µM [inhibitor, partial curve, poor fit] | 
COc1ccc(-c2nnc(SC(C)C(=O)Nc3nccs3)n2-c2ccccc2)cc1OC (stereo unspecified) | inconclusive: 1.41 µM [inhibitor, full curve, poor fit] | 
O=C(COC(=O)c1cc(S(=O)(=O)N2CCOCC2)ccc1Cl)NCc1ccco1 | inactive | 
COc1ccc(NC(=O)C(c2ccccc2)n2c(=O)c(-c3ccco3)nc3ccccc32)cc1 (stereo unspecified) | inactive | 
c1cc(-c2sc(-c3ccncc3)c(-c3ccncc3)c2-c2ccncc2)ccn1 | inconclusive: 35.5 µM [inhibitor, partial curve, poor fit] | 
CCN(C[C@H]1N[C@@](C)(C(=O)OC)[C@H]2C(=O)N(C)C(=O)[C@@H]12)C(=O)c1ccc(C)cc1 | inconclusive: 5.62 µM [inhibitor, full curve, poor fit] | 
Cc1nonc1NC(=O)CSc1ccc(-c2ccccc2)nn1 | inactive | 
Cc1cc(C)c(NC(=S)NC(=O)c2ccc(-c3ccccc3)cc2)c(C)c1 | active: 22.4 µM | 
Cc1ccc2nc(N(Cc3cccnc3)C(=O)CCS(=O)(=O)c3ccccc3)sc2c1 | inconclusive: 89.1 µM [inhibitor, partial curve, poor fit] | 
O=C(O)c1cc(C2CC2)nc2c1c(=O)[nH]c(=O)n2C1CC1 | inconclusive: 25.1 µM [inhibitor, full curve, poor fit] | 
CN(Cc1cccnc1)c1nc2c(c(=O)[nH]1)CCN(Cc1ccc(Cl)cc1F)CC2 | inconclusive: 50.1 µM [inhibitor, partial curve] | 
CCN1CCN(Cc2ccc(NC(=O)c3ccc(C)c(NC(=O)C4=NN(c5ccccc5)C(=O)C4)c3)cc2C(F)(F)F)CC1 | inconclusive: 56.2 µM [inhibitor, partial curve, poor fit] | 
O=[N+]([O-])c1cnc(Sc2ccncn2)c([N+](=O)[O-])c1 | inconclusive: 10 µM [inhibitor, full curve] | 

SMILES | Potency | activity change, negative = inhibition
O=C(c1cccs1)N1N=C(c2ccccc2)CC1c1ccc(O)cc1 (stereo unspecified) | inconclusive: 44.7 µM [inhibitor, partial curve] | 
COc1ccc2c(c1)CCN=C2C[C@H]1CN(S(=O)(=O)C(C)C)CC[C@H]1CC(=O)O | inconclusive: 35.5 µM [inhibitor, full curve, poor fit] | 
COCCn1nnnc1C(c1cc2cc(OC)c(OC)cc2[nH]c1=O)N1CCN(c2ccc(O)cc2)CC1 (stereo unspecified) | inconclusive: 44.7 µM [inhibitor, partial curve, poor fit] | 
Cc1ccc(C2CC(=O)C=C(NCC(C)C)C2)cc1 (stereo unspecified) | inconclusive: 1.58 µM [inhibitor, full curve, poor fit] | 
COc1cccc(NC(=O)CSc2nnc(-c3ccoc3C)n2-c2ccccc2)c1 | inconclusive: 44.7 µM [inhibitor, partial curve, poor fit] | 
O=C(CCc1nc2ccc(Cl)cc2[nH]1)N1CC(CO)C2(CCNCC2)C1 (stereo unspecified) | inconclusive: 3.16 µM [inhibitor, full curve, poor fit] | 
CC(C)C[C@H]1CNC(=S)N1CC1CCCN1C[C@H](Cc1ccccc1)N1C[C@H](Cc2ccc(O)cc2)N(CC2CCCCC2)C1=S (stereo partly specified) | inconclusive: 15.8 µM [inhibitor, partial curve, poor fit] | 
CCn1cc(CN2CCN(CC(C)(C)C)C(CCO)C2)c2ccccc21 (stereo unspecified) | inconclusive: 2.24 µM [inhibitor, full curve, poor fit] | 
NC(=O)[C@@H](Cc1c[nH]c2ccccc12)NC(=O)[C@@H]1C[C@@H](NS(=O)(=O)c2cccs2)CCN1C(=O)CSCC(=O)O | inconclusive: 35.5 µM [inhibitor, single point] | 
Cc1ccc(C)c(N2CCN(c3cc(C)nc4nc(-c5ccco5)nn34)CC2)c1 | inconclusive: 100 µM [inhibitor, single point] | 
O=C([C@H]1C[C@H](Oc2cccnc2)CN1C(=O)c1ccc2ccccc2n1)N1CCOCC1 | inactive | 
CCN(CC(=O)NC)C(=O)c1n[nH]c(=O)c2ccccc12 | inconclusive: 20 µM [inhibitor, full curve] | 
CN1CCCN(c2cc(-c3ccc4ccccc4c3)nc3ccnn23)CC1 | inconclusive: 50.1 µM [inhibitor, partial curve, poor fit] | 
C#CCN(C[C@H]1[C@H](OC(=O)Nc2cccs2)[C@H](OC(=O)Nc2cccs2)CN(C(=O)OC(C)C)N1C(=O)OC(C)C)S(=O)(=O)c1ccc(C)cc1 | inconclusive: 100 µM [inhibitor, single point] | 
COc1ccc(-c2nc(S(=O)(=O)c3ccc4c(c3)OCCO4)c(N3CCN(C)CC3)o2)cc1 | active: 35.5 µM | 
COc1ccc(NC2=NCC(Cc3ccc(Br)cc3)S2)cc1 (stereo unspecified) | inconclusive: 44.7 µM [inhibitor, partial curve, poor fit] | 
Cc1c(NC(=O)CCCN2C(=O)c3cccc4cccc(c34)C2=O)c(=O)n(-c2ccccc2)n1C | inconclusive: 44.7 µM [inhibitor, partial curve, poor fit] | 
Cc1cc(NC(=O)C2=C(O)c3ccccc3S(=O)(=O)N2C)no1 | inconclusive: 18.1 µM [inhibitor, single point] | 
CC(C)NC(=O)N1CNC(=O)C12CCN(C(=O)CN)CC2 | inconclusive: 10 µM [inhibitor, full curve] | 

Structural class, the compounds so far with bromine
SMILES | Potency | activity change, negative = inhibition
CCOc1ccccc1OCCCOc1ccc(C)cc1Br | inconclusive: 28.2 µM [inhibitor, partial curve, poor fit] | 
COc1ccc(NC2=NCC(Cc3ccc(Br)cc3)S2)cc1 (stereo unspecified) | inconclusive: 44.7 µM [inhibitor, partial curve, poor fit] | 
